Data on six molecules can be found in PMC9057599.

The chains behind the UniProt entries cited, without tags or fusion partners.
UniProt Q8N884: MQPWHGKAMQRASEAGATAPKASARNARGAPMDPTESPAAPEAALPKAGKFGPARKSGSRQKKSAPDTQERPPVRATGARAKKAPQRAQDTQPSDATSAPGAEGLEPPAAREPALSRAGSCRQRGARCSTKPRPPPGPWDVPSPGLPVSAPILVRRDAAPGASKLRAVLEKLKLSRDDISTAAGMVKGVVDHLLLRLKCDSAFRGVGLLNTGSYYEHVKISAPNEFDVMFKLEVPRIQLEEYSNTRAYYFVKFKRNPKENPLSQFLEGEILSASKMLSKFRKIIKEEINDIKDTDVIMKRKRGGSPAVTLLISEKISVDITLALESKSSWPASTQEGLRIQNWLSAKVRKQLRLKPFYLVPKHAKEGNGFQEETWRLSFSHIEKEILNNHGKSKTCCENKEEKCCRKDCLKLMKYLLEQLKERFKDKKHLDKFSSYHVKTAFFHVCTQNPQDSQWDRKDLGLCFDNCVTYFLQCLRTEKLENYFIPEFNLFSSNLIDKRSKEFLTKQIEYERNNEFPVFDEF
UniProt Q86WV6: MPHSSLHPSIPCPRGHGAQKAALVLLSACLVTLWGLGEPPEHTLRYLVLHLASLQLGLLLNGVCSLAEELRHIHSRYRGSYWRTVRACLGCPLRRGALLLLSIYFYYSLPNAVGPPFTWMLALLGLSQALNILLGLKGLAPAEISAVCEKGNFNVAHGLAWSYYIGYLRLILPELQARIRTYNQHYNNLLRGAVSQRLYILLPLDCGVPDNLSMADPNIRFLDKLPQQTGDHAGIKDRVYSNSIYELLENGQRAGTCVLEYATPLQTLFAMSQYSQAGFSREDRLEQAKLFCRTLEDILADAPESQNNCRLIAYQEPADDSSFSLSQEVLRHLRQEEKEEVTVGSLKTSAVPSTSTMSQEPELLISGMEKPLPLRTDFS
UniProt Q5VSL9: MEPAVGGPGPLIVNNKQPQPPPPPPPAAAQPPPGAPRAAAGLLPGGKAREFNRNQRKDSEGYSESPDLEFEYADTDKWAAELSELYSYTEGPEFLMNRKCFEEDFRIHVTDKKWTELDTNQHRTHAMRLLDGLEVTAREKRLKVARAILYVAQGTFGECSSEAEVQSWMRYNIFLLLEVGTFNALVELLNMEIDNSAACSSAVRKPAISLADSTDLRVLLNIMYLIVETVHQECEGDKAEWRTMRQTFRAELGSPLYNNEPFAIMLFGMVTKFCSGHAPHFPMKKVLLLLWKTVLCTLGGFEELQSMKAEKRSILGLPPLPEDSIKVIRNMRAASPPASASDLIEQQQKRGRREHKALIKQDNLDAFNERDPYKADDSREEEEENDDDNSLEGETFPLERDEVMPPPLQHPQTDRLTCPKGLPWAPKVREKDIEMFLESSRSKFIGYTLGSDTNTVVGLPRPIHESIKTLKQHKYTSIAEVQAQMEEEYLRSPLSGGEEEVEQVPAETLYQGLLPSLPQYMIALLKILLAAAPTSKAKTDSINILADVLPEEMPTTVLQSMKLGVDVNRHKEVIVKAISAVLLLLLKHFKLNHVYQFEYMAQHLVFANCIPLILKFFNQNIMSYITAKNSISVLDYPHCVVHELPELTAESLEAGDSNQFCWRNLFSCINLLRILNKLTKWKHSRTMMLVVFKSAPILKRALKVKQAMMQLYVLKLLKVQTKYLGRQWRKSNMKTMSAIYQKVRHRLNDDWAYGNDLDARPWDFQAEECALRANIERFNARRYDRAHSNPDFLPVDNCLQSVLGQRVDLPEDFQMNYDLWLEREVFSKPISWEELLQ

Results are given in words; binding and its absence hold for the method and conditions named. Binding seen in cells or lysates may run through a third protein. Some entries that bind do so weakly or less than the wild type. For part of these data: Sequences can lack the tags named with a protein.

One assay has as its target T1, Flag-tagged SLMAP (UniProt Q14BN4).
T1 sequence: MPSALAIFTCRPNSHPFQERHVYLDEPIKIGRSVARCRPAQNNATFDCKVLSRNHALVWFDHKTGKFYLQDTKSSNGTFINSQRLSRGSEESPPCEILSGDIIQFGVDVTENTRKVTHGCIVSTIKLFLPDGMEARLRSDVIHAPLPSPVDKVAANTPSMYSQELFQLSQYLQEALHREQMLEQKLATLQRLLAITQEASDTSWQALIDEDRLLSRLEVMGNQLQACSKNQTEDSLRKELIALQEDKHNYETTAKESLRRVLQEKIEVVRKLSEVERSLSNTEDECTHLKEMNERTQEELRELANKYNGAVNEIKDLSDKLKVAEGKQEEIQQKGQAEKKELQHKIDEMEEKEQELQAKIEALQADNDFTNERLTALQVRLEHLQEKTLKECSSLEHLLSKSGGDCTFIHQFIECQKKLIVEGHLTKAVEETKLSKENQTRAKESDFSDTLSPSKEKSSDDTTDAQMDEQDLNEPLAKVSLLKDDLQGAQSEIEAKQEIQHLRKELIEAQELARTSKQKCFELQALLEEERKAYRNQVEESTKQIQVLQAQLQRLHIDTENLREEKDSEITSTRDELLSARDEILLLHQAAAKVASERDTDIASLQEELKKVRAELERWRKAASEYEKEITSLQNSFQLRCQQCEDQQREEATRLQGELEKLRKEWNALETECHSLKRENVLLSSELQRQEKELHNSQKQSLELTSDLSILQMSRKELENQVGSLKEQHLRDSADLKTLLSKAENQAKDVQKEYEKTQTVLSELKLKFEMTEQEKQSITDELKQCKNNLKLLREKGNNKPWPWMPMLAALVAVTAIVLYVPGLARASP
Kind of assay: co-IP; Flag-SLMAP transfected cells (293FT in the legend, 293A in the text); IR or etoposide, harvested 2 hours after treatment.

Assay [1] has as its target T2, STRN3 (human (endogenous in 293A, HGC-27)) (UniProt Q13033).
T2 sequence: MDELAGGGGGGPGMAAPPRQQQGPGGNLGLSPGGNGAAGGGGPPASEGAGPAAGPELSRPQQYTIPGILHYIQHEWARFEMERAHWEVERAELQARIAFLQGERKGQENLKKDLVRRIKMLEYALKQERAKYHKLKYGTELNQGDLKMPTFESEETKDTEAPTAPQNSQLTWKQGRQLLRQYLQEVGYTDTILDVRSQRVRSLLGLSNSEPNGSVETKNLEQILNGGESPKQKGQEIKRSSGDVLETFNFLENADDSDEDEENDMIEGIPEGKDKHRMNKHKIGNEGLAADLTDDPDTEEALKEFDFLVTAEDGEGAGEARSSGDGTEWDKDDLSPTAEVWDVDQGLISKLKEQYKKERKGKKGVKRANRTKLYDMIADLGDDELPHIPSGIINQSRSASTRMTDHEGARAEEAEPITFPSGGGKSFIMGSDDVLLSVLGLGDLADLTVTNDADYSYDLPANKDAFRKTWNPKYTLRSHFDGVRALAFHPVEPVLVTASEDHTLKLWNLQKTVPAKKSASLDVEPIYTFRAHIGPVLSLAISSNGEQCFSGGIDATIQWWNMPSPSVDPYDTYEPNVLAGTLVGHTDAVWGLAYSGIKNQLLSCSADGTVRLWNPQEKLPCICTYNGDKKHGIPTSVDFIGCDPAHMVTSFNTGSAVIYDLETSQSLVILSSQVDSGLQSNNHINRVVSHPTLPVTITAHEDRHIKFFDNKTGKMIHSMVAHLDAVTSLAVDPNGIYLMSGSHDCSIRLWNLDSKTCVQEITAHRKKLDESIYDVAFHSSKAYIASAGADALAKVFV
In words: co-IP; BGC-823 cells with or without SAIP-1 or SAIP-2; interactions of STRN3 (Supplemental Figure 10D).

In assay [2] the target is T2, STRN3 (human (endogenous in 293A, HGC-27)). Kind of assay: co-IP; STRN3 IP from 293A and HGC-27 cells; 10 μM etoposide for 1 hour, collected at time points after removal of the drug.
The next assay has as its target T3, Flag-TBK1 (UniProt Q9UHD2).
T3 sequence: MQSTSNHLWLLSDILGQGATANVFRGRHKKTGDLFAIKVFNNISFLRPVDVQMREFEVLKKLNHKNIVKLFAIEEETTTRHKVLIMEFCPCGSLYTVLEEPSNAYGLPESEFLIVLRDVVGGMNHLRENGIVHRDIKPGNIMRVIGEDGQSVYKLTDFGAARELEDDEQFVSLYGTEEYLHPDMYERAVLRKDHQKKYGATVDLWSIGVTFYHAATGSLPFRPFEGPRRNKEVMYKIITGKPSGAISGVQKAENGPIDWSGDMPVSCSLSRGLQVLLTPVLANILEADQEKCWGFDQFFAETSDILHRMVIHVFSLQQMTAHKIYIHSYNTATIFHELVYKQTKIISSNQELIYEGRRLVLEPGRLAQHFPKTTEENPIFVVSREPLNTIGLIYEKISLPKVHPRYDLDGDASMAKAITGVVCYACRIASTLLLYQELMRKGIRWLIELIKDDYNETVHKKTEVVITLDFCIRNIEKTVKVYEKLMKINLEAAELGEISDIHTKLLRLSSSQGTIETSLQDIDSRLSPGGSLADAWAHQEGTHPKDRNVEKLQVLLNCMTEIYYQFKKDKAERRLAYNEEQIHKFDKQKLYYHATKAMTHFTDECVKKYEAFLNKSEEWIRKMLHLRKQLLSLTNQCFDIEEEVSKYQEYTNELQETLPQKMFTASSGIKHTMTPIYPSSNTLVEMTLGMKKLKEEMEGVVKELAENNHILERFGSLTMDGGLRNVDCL
In words: co-IP; Flag-TBK1 transfected 293FT cells; DNA damage or cGAMP, IP 2 hours after treatment; TBK1 inhibitors MRT or AA-673 greatly attenuated the association.

The target in assay [3] is T4, STRN3 (in vitro pulldown assays) (UniProt Q13033).
T4 sequence: T2 sequence
In words: pull-down; in vitro pulldown of STRN3 and SIKE1 with increasing doses of SAIP-2 (Supplemental Figure 10C).

For “cyclic GMP-AMP synthase (cGAS) (from UniProt Q8N884 1-522)”, the binding entry with Flag-tagged SLMAP is reported as “no binding”.

As to “stimulator of IFN genes (STING) (from UniProt Q86WV6 1-379)”, in the assay with Flag-tagged SLMAP, the binding result was “no binding”.

For “striatin-interacting protein 1 (STRIP1) (from UniProt Q5VSL9 1-837)”, in assay [1], the binding result is given as “binds”.

B1: sarcolemma membrane–associated protein (SLMAP) (protein, UniProt Q14BN4 1-828)
chain: T1 sequence
In the case of B1, the binding entry in assay [1] and in assay [2] was “binds” each time.

B2: suppressor of IKBKE 1 (SIKE1) (protein, UniProt Q9BRV8 1-207)
chain: MSCTIEKILTDAKTLLERLREHDAAAESLVDQSAALHRRVAAMREAGTALPDQYQEDASDMKDMSKYKPHILLSQENTQIRDLQQENRELWISLEEHQDALELIMSKYRKQMLQLMVAKKAVDAEPVLKAHQSHSAEIESQIDRICEMGEVMRKAVQVDDDQFCKIQEKLAQLELENKELRELLSISSESLQARKENSMDTASQAIK
As to B2, the binding entry (in assay [1]; in assay [2]; with Flag-TBK1) was “binds” each time.

B3: SIKE1 (in vitro pulldown assay) (protein, UniProt Q9BRV8 1-207)
chain: B2 chain
For B3, in assay [3], the binding result is on record as “binds”.
